Results as given in the supplement of paper PMC10849652.
The other results are listed elsewhere or left out.

By UniProt entry, the sequences of proteins in these tests, tags left out. Where a name states a change or a piece, a line headed by the entry shows the natural chain unless it says otherwise.
UniProt Q9GZY4: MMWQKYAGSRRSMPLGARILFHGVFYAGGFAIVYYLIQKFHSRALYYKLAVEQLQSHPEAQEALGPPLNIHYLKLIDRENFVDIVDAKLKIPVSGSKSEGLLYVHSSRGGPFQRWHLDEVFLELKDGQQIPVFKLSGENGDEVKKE
UniProt Q9H9Q2: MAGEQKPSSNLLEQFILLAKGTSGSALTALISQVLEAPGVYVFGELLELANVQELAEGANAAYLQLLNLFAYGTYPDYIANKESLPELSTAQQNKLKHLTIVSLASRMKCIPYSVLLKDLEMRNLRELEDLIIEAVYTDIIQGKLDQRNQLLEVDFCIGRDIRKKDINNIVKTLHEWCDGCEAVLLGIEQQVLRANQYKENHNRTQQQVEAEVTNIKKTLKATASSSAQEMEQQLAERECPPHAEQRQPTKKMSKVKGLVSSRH
UniProt Q9NZJ6: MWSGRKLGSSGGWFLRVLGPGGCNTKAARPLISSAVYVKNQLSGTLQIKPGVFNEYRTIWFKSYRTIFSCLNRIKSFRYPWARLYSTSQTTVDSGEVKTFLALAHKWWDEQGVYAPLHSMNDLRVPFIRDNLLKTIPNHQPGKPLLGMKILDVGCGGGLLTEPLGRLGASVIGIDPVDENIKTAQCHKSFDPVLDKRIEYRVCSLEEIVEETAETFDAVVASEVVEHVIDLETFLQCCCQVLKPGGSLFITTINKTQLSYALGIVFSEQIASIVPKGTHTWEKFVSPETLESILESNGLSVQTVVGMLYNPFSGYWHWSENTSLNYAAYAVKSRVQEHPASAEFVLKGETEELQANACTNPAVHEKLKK
UniProt Q8IWV2: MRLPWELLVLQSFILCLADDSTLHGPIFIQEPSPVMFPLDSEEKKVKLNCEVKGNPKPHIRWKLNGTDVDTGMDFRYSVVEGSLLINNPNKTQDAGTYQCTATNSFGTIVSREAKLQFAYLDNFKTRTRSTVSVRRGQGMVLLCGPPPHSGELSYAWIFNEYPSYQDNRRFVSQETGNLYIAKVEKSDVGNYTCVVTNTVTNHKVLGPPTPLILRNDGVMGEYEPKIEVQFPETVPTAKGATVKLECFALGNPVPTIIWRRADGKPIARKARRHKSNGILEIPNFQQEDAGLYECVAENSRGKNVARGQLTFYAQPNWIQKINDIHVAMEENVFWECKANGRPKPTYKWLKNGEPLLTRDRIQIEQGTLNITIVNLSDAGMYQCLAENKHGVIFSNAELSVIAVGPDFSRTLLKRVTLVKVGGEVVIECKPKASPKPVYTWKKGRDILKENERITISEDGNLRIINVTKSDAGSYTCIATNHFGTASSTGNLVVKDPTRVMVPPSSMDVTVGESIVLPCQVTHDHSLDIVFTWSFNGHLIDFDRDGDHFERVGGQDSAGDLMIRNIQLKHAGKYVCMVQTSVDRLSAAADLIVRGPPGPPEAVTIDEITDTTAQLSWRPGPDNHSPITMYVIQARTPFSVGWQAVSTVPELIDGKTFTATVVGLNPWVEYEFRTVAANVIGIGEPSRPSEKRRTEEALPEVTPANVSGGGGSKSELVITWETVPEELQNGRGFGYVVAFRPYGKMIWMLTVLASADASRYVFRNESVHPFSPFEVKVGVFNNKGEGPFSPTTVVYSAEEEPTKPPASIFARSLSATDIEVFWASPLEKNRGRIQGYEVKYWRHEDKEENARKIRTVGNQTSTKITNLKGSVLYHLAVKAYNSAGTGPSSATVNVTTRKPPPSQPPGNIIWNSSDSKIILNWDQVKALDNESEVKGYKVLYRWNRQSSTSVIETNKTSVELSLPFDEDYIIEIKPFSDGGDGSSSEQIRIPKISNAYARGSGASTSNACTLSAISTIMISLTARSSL
UniProt P13073, whole entry, looked up: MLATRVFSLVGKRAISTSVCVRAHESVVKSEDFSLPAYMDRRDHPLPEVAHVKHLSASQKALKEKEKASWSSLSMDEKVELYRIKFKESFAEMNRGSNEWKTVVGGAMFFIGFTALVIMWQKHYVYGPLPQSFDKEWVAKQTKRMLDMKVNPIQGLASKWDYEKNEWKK
UniProt Q9BRF8, whole entry, looked up: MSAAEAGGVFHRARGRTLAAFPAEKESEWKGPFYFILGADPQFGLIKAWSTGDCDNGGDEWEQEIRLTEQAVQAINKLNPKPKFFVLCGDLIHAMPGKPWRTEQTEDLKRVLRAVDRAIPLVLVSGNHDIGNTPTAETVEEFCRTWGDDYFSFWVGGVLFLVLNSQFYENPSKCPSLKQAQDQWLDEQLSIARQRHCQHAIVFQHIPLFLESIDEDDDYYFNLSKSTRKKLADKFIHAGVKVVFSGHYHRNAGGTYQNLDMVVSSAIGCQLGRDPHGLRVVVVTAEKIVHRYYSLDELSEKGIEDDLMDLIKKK
UniProt O95639, whole entry, looked up: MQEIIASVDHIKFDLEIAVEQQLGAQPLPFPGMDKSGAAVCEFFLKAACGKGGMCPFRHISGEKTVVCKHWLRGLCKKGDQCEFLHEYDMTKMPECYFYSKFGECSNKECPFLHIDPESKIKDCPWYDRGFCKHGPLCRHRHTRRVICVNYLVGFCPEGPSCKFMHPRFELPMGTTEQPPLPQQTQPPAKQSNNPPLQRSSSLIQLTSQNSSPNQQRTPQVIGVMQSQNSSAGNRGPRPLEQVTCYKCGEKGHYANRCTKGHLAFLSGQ
UniProt Q9Y6G5, whole entry, looked up: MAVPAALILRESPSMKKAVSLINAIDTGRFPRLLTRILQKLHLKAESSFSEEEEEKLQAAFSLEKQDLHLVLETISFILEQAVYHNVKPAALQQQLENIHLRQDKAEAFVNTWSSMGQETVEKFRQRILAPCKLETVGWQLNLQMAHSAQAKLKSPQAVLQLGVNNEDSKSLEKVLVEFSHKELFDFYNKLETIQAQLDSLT
UniProt O75976: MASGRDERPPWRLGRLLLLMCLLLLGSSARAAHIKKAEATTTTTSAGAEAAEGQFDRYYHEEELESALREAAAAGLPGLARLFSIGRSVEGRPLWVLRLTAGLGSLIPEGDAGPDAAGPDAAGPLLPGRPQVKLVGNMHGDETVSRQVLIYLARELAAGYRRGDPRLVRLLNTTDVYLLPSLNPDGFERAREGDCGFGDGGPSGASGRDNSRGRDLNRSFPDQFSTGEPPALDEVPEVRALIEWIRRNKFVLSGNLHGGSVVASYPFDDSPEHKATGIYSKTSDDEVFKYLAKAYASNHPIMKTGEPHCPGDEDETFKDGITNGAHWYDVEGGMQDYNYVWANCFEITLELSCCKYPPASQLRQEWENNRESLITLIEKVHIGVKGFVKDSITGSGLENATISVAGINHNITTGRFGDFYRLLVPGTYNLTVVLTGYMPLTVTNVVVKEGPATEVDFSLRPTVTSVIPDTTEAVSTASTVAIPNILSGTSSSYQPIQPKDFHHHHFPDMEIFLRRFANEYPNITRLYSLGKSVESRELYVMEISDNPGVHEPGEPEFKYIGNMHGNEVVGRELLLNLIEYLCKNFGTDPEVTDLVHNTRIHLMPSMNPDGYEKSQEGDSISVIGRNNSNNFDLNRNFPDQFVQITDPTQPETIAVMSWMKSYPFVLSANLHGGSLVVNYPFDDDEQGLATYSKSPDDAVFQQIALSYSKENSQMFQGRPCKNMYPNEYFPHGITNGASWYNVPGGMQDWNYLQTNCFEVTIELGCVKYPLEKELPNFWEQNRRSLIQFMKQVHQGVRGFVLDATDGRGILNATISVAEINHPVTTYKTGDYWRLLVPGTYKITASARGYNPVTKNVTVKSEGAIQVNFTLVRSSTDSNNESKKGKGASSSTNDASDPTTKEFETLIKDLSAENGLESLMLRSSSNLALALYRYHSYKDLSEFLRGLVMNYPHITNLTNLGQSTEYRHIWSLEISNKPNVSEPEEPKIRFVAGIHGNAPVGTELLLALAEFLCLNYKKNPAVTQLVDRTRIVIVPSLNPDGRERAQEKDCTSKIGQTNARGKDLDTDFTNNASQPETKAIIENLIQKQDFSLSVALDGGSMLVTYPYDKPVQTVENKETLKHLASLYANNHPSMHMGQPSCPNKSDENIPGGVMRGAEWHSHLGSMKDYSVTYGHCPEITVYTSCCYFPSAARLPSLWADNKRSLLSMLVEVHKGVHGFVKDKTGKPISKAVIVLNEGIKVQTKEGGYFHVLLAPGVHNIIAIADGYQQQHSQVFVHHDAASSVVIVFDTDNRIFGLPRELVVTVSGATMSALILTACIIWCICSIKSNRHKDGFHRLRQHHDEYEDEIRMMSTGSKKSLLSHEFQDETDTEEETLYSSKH
UniProt Q9ULV4, whole entry, looked up: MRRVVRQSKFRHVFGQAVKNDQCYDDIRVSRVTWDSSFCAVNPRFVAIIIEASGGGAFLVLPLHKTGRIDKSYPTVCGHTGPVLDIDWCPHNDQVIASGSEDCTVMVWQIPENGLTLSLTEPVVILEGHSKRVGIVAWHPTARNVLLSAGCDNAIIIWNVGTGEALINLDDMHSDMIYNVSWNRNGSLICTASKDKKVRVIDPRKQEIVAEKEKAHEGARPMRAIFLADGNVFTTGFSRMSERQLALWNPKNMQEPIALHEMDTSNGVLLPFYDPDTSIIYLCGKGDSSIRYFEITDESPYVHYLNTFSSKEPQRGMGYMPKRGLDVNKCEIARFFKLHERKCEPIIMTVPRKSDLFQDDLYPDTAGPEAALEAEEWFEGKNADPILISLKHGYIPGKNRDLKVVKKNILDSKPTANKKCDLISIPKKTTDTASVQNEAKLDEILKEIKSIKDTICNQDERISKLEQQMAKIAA
UniProt O95628: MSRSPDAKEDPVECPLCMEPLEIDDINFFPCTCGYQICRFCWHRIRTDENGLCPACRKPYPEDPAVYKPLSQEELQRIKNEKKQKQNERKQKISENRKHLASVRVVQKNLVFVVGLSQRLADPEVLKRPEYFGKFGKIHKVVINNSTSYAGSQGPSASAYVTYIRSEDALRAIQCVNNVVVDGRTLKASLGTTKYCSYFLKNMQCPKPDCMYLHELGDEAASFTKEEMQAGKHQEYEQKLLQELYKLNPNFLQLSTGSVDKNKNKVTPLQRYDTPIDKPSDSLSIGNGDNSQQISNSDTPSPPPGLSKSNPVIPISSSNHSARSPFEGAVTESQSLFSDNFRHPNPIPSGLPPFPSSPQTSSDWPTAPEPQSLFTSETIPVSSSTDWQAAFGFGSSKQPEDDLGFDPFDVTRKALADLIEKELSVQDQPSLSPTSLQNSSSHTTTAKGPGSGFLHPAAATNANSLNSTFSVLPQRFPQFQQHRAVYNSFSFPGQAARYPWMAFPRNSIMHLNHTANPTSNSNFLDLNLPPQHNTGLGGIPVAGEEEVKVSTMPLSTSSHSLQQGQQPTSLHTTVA
UniProt Q9P000, whole entry, looked up: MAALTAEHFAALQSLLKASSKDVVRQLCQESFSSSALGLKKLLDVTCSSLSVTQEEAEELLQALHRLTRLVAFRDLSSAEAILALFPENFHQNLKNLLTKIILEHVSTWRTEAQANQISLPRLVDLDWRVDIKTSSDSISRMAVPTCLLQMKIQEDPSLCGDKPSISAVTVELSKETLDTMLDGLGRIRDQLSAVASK
UniProt Q17RY0: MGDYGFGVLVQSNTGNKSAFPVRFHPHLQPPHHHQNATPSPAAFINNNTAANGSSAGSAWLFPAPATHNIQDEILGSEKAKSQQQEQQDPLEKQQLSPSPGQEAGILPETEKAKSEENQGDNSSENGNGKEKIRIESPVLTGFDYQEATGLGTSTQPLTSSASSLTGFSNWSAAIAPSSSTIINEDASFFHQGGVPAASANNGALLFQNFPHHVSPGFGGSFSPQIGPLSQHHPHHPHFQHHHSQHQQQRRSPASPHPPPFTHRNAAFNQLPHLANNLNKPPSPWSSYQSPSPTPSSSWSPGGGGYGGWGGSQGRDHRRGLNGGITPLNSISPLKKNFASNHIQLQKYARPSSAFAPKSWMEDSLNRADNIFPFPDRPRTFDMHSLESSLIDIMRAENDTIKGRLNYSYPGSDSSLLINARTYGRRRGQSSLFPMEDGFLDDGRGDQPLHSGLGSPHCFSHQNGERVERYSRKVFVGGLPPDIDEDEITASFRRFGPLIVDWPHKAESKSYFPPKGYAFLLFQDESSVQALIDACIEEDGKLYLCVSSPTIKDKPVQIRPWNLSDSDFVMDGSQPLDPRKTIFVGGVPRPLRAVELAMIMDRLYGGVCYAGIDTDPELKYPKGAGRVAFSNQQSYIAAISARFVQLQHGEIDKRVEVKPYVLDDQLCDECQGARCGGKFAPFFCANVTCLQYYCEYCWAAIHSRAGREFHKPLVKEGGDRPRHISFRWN
UniProt P12074, whole entry, looked up: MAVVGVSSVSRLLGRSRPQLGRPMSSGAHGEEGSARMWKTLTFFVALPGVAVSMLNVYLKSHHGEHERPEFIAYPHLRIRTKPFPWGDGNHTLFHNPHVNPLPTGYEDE
UniProt Q99807: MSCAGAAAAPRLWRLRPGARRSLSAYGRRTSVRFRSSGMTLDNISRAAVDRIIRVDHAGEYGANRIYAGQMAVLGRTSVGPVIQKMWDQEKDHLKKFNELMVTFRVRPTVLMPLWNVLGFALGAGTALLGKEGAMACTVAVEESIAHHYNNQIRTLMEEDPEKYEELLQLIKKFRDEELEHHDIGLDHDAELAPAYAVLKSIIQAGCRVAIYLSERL
UniProt Q14019: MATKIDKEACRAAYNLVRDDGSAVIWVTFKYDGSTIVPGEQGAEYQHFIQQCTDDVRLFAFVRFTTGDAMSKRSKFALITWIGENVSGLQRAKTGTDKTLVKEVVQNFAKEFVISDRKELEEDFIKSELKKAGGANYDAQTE

Compound: C1CCN(C1)C(=O)NC2=CC=CC(=C2)NC3=NC=C(C(=N3)NCCC4=CN=CN4)Br
Experiment: log2 fold change, soluble protein after heating vs DMSO (PISA); higher = thermal stabilisation; K562 lysate, 10 uM; active = over 0.2 and 3.5 SD of the protein, either way, in both replicates (recomputed)
In short: (§1)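 The values are log-two fold changes in thermal stability compared with solvent controls and come from duplicates. They were obtained by TMTpro 16plex LC-MS/MS, with channel sums equalised, on the supernatant after 21,000xg for 90 min. That supernatant came from crude K562 extract at 1 mg/mL protein treated with 10 μM compound for 30 min, heated for 3 min across 48°C-58°C, pooled and brought to 0.5% NP-40 at 4°C.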

log2 fold change, inactive:
COA1 (UniProt Q9GZY4) -0.031
COPS7B (UniProt Q9H9Q2) -0.102
COQ3 (UniProt Q9NZJ6) -0.114
CNTN4 (UniProt Q8IWV2) -0.124
COX4I1 (UniProt P13073) 0.018
CPPED1 (UniProt Q9BRF8) -0.016
COPS4 (UniProt Q9BT78) 0.012
CPSF4 (UniProt O95639) 0.04
COMMD10 (UniProt Q9Y6G5) 0.037
CPD (UniProt O75976) -0.05
CORO1C isoform 3 (UniProt Q9ULV4) -0.027
CNOT4 isoform 6 (UniProt O95628) -0.032
COMMD9 (UniProt Q9P000) -0.037
COL18A1 (UniProt P39060) -0.049
CPEB4 (UniProt Q17RY0) -0.025
COX15 (UniProt Q7KZN9) 0.011
COX6A1 (UniProt P12074) 0.011

Compound: C1CN(CCC1(CC2=CC=C(C=C2)Cl)N)C3=NC=NC4=C3C=CN4
Experiment: as above
In short: as §1

log2 fold change, inactive:
CNOT10 (UniProt Q9H9A5) 0.045
COPA isoform 2 (UniProt P53621) -0.006
COPS3 (UniProt Q9UNS2) 0.026
COX7A2 (UniProt P14406) 0.045
CNOT6 (UniProt Q9ULM6) 0
CNOT7 (UniProt Q9UIV1) 0.01
CNOT3 (UniProt O75175) 0.054
COX5A (UniProt P20674) 0.01
COPRS (UniProt Q9NQ92) 0.033
COQ7 (UniProt Q99807) 0.007
COTL1 (UniProt Q14019) 0.008
COX11 (UniProt Q9Y6N1) 0.031
CRADD (UniProt P78560) -0.01
COMMD1 (UniProt Q8N668) 0.023
CNOT1 (UniProt A5YKK6) -0.011
CPSF7 isoform 3 (UniProt Q8N684) 0.012
COMTD1 (UniProt Q86VU5) 0.048
COX18 (UniProt Q8N8Q8) -0.035
COX19 (UniProt Q49B96) -0.01
COPZ1 isoform 4 (UniProt P61923) -0.028
CPSF1 (UniProt Q10570) 0.015
CNPY2 (UniProt Q9Y2B0) -0.016
CNST (UniProt Q6PJW8) 0.036
COA1 (UniProt Q9GZY4) 0.015
COPS7B (UniProt Q9H9Q2) 0.052
COQ3 (UniProt Q9NZJ6) 0.404
CNTN4 (UniProt Q8IWV2) 0.138
COX4I1 (UniProt P13073) 0.019
CPPED1 (UniProt Q9BRF8) -0.007
COPS4 (UniProt Q9BT78) 0.008
CPSF4 (UniProt O95639) 0.052
COMMD10 (UniProt Q9Y6G5) -0.01
CPD (UniProt O75976) 0.08
CORO1C isoform 3 (UniProt Q9ULV4) -0.004
CNOT4 isoform 6 (UniProt O95628) -0.013
COMMD9 (UniProt Q9P000) 0.128
COL18A1 (UniProt P39060) 0.04
CPEB4 (UniProt Q17RY0) 0.085
COX15 (UniProt Q7KZN9) -0.013
COX6A1 (UniProt P12074) 0.028

Compound: C1COCCN1CCN2C3=CC=CC=C3N=C2NC(=O)C4=CC(=CC=C4)[N+](=O)[O-] [IRAK-1-4 Inhibitor I]
Experiment: as above
In short: as §1

log2 fold change, inactive:
CNOT10 (UniProt Q9H9A5) 0.026
COPA isoform 2 (UniProt P53621) 0.014
COPS3 (UniProt Q9UNS2) 0.009
COX7A2 (UniProt P14406) -0.007
CNOT6 (UniProt Q9ULM6) 0.004
CNOT7 (UniProt Q9UIV1) -0.004
CNOT3 (UniProt O75175) -0.006
COX5A (UniProt P20674) -0.05
COPRS (UniProt Q9NQ92) 0.021
COQ7 (UniProt Q99807) 0.063
COTL1 (UniProt Q14019) -0.03
COX11 (UniProt Q9Y6N1) -0.024
CRADD (UniProt P78560) 0.046
COMMD1 (UniProt Q8N668) 0.008
CNOT1 (UniProt A5YKK6) -0.001
CPSF7 isoform 3 (UniProt Q8N684) -0.017
COMTD1 (UniProt Q86VU5) -0.038
COX18 (UniProt Q8N8Q8) 0.009
COX19 (UniProt Q49B96) 0.035
COPZ1 isoform 4 (UniProt P61923) -0.015
CPSF1 (UniProt Q10570) -0.009
CNPY2 (UniProt Q9Y2B0) -0.056
CNST (UniProt Q6PJW8) 0.023
COA1 (UniProt Q9GZY4) 0.031
COPS7B (UniProt Q9H9Q2) -0.046
COQ3 (UniProt Q9NZJ6) -0.06
CNTN4 (UniProt Q8IWV2) 0.119
COX4I1 (UniProt P13073) 0.014
CPPED1 (UniProt Q9BRF8) 0.004
COPS4 (UniProt Q9BT78) -0.013
CPSF4 (UniProt O95639) -0.029
COMMD10 (UniProt Q9Y6G5) -0.036
CPD (UniProt O75976) 0.045
CORO1C isoform 3 (UniProt Q9ULV4) -0.008
CNOT4 isoform 6 (UniProt O95628) 0.041
COMMD9 (UniProt Q9P000) 0.002
COL18A1 (UniProt P39060) -0.013
CPEB4 (UniProt Q17RY0) 0.013
COX15 (UniProt Q7KZN9) -0.003
COX6A1 (UniProt P12074) -0.023
